# Experimental data reported in patent US7910611B2, “Therapeutic agent for restenosis” (Kyowa Hakko Kirin Co., Ltd., priority 2005, dated 2011).
# Some results were stated once for a whole list of compounds, not compound by compound.
# System: normal human aortic smooth muscle cells
# Experiment: Cell growth inhibition tests against human vascular smooth muscle cells (XTT)
# Type: cell-based
# Settings: read-out: growth inhibitory activity in terms of the GI50 value (concentration of 50% growth inhibition), cultured 72 hours with test compound, absorbance at 490 nm
# Method: Cell Growth Inhibition Tests Against Human Vascular Smooth Muscle Cells
# As human vascular smooth muscle cells, normal human aortic smooth muscle cells (Cambrex, catalog No. C-2571) were used. HuMedia-SB2 basal medium (Kurabo Industries, Ltd., catalog No. KS-2150S) containing 5% fetal bovine serum (Kurabo Industries, Ltd., catalog No. KS-6150), 0.5 ng/mL human recombinant epidermal growth factor (Kurabo Industries, Ltd., catalog No. KS-6150), 2 ng/mL human recombinant basic fibroblast growth factor (Kurabo Industries, Ltd., catalog No. KS-6150), 5 μg/mL insulin (Kurabo Industries, Ltd., catalog number KS-6150), 50 μg/mL gentamycin (Kurabo Industries, Ltd., catalog No. KS-6150), and 50 ng/mL amphotericin B (Kurabo Industries, Ltd., catalog No. KS-6150) was used for cell culture. The cells were cultured at 37° C. in a 5% carbon dioxide atmosphere.
# The normal human aortic smooth muscle cells (1000 cells/well) were seeded in each well of 96-well plates (Nunc, catalog No. 167008), and cultured overnight. […] After 4 hours, absorbance at 490 nm (reference wavelength: 655 nm) was measured with a plate reader (Molecular Device, SpectraMax 340PC^384). Growth ratios of the cells in the wells treated with the test compound was calculated based on the growth ratio of the cells in the control well treated with solvent (dimethyl sulfoxide (DMSO)) for 72 hours, which was defined as 100%.
structure (smiles),measurement,value
"CC(C)(C)C(=O)NC1=NN(C(=O)C(C)(C)C)C(CNS(=O)(=O)CSCCN)(c2ccccc2)S1 (stereo not shown) [Compound 25, N-{5-[(2-Aminoethylsulfanyl)methanesulfonylaminomethyl]-4-(2,2-dimethyl-propionyl)-5-phenyl-4,5-dihydro[1,3,4]thiadiazol-2-yl}-2,2-dimethyl propionamide]",GI50,< 10 µM
